Assay results as given in publication PMC6515519 (Molecules, 2019).
Some peptides are written in HELM: one residue between dots, names in brackets for other building blocks, links after the first $.

Test: general procedure: Fmoc solid-phase peptide synthesis; rink-amide-MBHA (100–200 mesh), 0.66 equivalents/g substitution; HBTU, DIEA
Details: whole synthesis, 214 nm

Substance: Ac-His-Arg-(pMe)DPhe-Tic-NH2
- final HPLC purity: >97%

Substance: Ac-His-Arg-(pF)DPhe-Tic-NH2
- final HPLC purity: >95%

Substance: Ac-His-Arg-(3,4-diCl)DPhe-Tic-NH2
- final HPLC purity: >97%

Substance: Ac-His-DPhe-Arg-Trp-NH2
- final HPLC purity: >98%

Substance: Ac-His-Arg-(pI)DPhe-Tic-NH2
- final HPLC purity: >97%

Substance: Ac-His-Arg-(pCl)DPhe-Tic-NH2
- final HPLC purity: >97%

Substance: PEPTIDE1{[ac].H.R.[dBip].[Tic].[am]}$$$$V2.0
- final HPLC purity: >96%

Substance: Ac-His-Arg-(ptBu)DPhe-Tic-NH2
- final HPLC purity: >95%

Substance: Ac-His-Arg-(pBr)DPhe-Tic-NH2
- final HPLC purity: >98%

Substance: PEPTIDE1{[ac].H.R.[dY].[Tic].[am]}$$$$V2.0
- final HPLC purity: >96%

Substance: Ac-His-Arg-(pCN)DPhe-Tic-NH2
- final HPLC purity: >97%

Substance: Ac-His-Arg-(pCF3)DPhe-Tic-NH2
- final HPLC purity: >98%

Substance: PEPTIDE1{[ac].H.R.[dF].[Tic].[am]}$$$$V2.0
- final HPLC purity: >99%
